Assay [1] has as its target human CEACAM1 IgV domain, I91A mutant (human) (UniProt P13688). As to the kind of experiment: SEC-MALS; samples at 100 μM injected onto TSK-gel Bioassist G4SWxl, 10 mM HEPES pH 7.4, 150 mM, 0.5 mL/min; self-association, monomer to dimer; both purified.
Assay [2] addresses human CEACAM1 IgV domain, wildtype (human) (UniProt P13688). In words: NMR titration; 15N-HSQC spectra at varying protein concentration (N97A 16-500 μM; WT 10 μM and 1 mM); 10 mM HEPES, 50 mM NaCl, pH 7.0, 25 °C; dimer to monomers; rough estimate from peak trajectories of Q44 and A49; both purified.

These are yes or no findings as the source states them, for the method shown. Some results given as binding are weak or reduced against the parent protein; the word gives no strength.

B1: human CEACAM1 IgV domain, I91A mutant (domain or fragment)
chain: QLTTESMPFNVAEGKEVLLLVHNLPQQLFGYSWYKGERVDGNRQIVGYAIGTQQATPGPANSGRETIYPNASLLIQNVTQNDTGFYTLQVAKSDLVNEEATGQFHVY
notes: unglycosylated
Take B1: the binding result in assay [1] is recorded as “binds weakly”.

B2: human CEACAM1 IgV domain, wildtype (domain or fragment)
chain: AQLTTESMPFNVAEGKEVLLLVHNLPQQLFGYSWYKGERVDGNRQIVGYAIGTQQATPGPANSGRETIYPNASLLIQNVTQNDTGFYTLQVIKSDLVNEEATGQFHVY
notes: Carcinoembryonic antigen-related cell adhesion molecule 1 (CEACAM1), human, N-terminal IgV domain; NMR samples were 15N/13C or 15N/13C/2H labelled; also called hCEACAM1 WT IgV; WT; source: isotope-labelled samples expressed from E. coli in M9 minimal medium, purified
For the molecule B2, the binding result in assay [2] was “binds”.

These data come from publication PMC7979749, “Structural basis of the dynamic human CEACAM1 monomer-dimer equilibrium” (Communications Biology, 2021).
